# Test system: differentiated duodenum organoids
# Test: Cell viability (Cell Titer Glo 3D, ATP) in differentiated organoid model
# Conditions: Homo sapiens, read-out: IC50 (μM) Diff.
# Procedure: Organoids were grown for 7–10 days then dissociated using TrypLE™ Express Enzyme, as described above. Single cells were resuspended in BME at a density of 5–6 × 10^5 cells/mL on ice and plated as 5 μL/well domes in clear-bottom 96-well plates (Corning). The domes were cured for 10–15 min at 37°C and overlaid with 100 μL of growth media replaced every 2–3 days.
# Compounds were administered after 5–6 days in growth medium for proliferative organoids or after an additional 4 days in differentiation medium for differentiated organoids. Organoid media was replaced with 90 μL fresh media immediately prior to dosing. […] Luminescence was measured on EnSight and EnVision (Perkin Elmer) plate readers and normalized to on-plate vehicle controls (0.5%–1% DMSO) in corresponding growth or differentiation medium. […]
# To compare toxicity responses of proliferative and differentiated organoids, proliferative organoids were grown 5–6 days in OGM prior to dosing, while differentiated organoids were transitioned to ODM for an additional 4 days prior to dosing (Figure 2A). Both proliferative and differentiated organoids were incubated with compounds or a 0.5%–1% DMSO vehicle control (as indicated) for 3 days prior to measuring ATP levels as a readout for cell viability. […]
smiles,measurement,value
COc1cc2c(c(OC)c1OC)-c1ccc(OC)c(=O)cc1[C@@H](NC(C)=O)CC2 [colchicine],IC50,0.084 µM
